Reference: PubChem BioAssay AID256 (DTP/NCI, 2004)
The list shows only some results of the screen, not a fair sample: it is rich in T/C values a quarter to a half above the control, in often repeated tests (any T/C) and in doses without a T/C. Other doses and runs of a compound stand elsewhere. T/C: endpoint of the treated group in % of that of the vehicle group. Some entries give survivors of the animals treated and no T/C: the source holds a T/C of zero for them, seemingly a mark for toxic or unscored doses. Some doses without a T/C left all or most animals alive at the check, yet need not have been tolerated: survival well below the control is almost never listed, so the zero probably covers shortened survival too. Counts of survivors are from the toxicity check (mostly the fifth day) where no day follows; animals may have died later. Schedules are NCI's codes, taken here to give the interval after Q, in days (D) or hours (H), and the number of doses after X. Some entries hold several experiments; the values are given in rising order. Where survival is the endpoint, this PubChem deposit counts one and a half times the control or more as active, and values a quarter to a half above the control carry no call in these data; other NCI protocols may use other cut-offs. Some T/C values carry the count of animals alive at the toxicity check (mostly the fifth day); without a count, all were alive then. Additions like (4×) give the number of equal values in this list.

Tested on: CD2F1 mice, L1210 leukemia ip, survival T/C
Test: NCI In Vivo Anticancer Drug Screen. Data for tumor model L1210 Leukemia (intraperitoneal) in CD2F1 (CDF1) mice
Conditions: higher T/C = longer survival
Description: The antitumor activity of compounds was measured in mice bearing transplantable tumors. Survival or tumor size were measured and the results are expressed as the measurement made in the treated group (T) divided by the measurement made in the vehicle treated control group (C). The tumor model used in this assay is L1210 Leukemia (intraperitoneal) in CD2F1 (CDF1) mice

[1] = T/C endpoint: mean survival time, dose: 400.0 mg/kg/injection, schedule: Q01DX001 (ip), vehicle: saline with Tween-80
[2] = T/C endpoint: mean survival time, dose: 400.0 mg/kg/injection, schedule: Q04DX002 (ip), vehicle: saline with Tween-80
[3] = T/C endpoint: mean survival time, dose: 400.0 mg/kg/injection, schedule: Q04DX003 (ip), vehicle: saline with Tween-80
[4] = T/C endpoint: mean survival time, dose: 400.0 mg/kg/injection, schedule: Q01DX009 (ip), vehicle: Klucel (hydroxypropylcellulose) (HPC)
[5] = T/C endpoint: mean survival time, dose: 50.0 mg/kg/injection, schedule: Q01DX009 (ip), vehicle: saline with Tween-80
[6] = T/C endpoint: mean survival time, dose: 100.0 mg/kg/injection, schedule: Q01DX009 (ip), vehicle: saline with Tween-80
[7] = T/C endpoint: mean survival time, dose: 200.0 mg/kg/injection, schedule: Q01DX009 (ip), vehicle: saline with Tween-80
[8] = T/C endpoint: mean survival time, dose: 200.0 mg/kg/injection, schedule: Q04DX003 (ip), vehicle: saline with Tween-80
[9] = T/C endpoint: mean survival time, dose: 150.0 mg/kg/injection, schedule: Q01DX001 (ip), vehicle: saline
[10] = T/C endpoint: mean survival time, dose: 300.0 mg/kg/injection, schedule: Q01DX001 (ip), vehicle: saline
[11] = T/C endpoint: mean survival time, dose: 100.0 mg/kg/injection, schedule: Q04DX003 (ip), vehicle: saline with Tween-80
[12] = T/C endpoint: mean survival time, dose: 400.0 mg/kg/injection, schedule: Q01DX009 (ip), vehicle: saline with Tween-80

NC(=S)Nc1ccccc1[N+](=O)[O-]
survivor count [1]: 0 of 6 | survivor count [2]: 2 of 6

O=C(NNC(=O)c1cccc(C(=O)NNC(=O)c2ccc(Cl)c(Cl)c2)n1)c1ccc(Cl)c(Cl)c1
survivor count (T/C endpoint: median survival time, dose: 333.33 mg/kg/injection, schedule: Q01DX005 (ip), vehicle: Klucel (hydroxypropylcellulose) (HPC)): 2 of 6 | survivor count (T/C endpoint: median survival time, dose: 555.56 mg/kg/injection, schedule: Q01DX005 (ip), vehicle: Klucel (hydroxypropylcellulose) (HPC)): 6 of 6

CCCCCCCCN(c1ccc(I)cc1)S(=O)(=O)c1ccc(C)cc1
survivor count [3]: 6 of 6

c1cc2c(ncn3nnnc23)[nH]1
survivor count (T/C endpoint: mean survival time, dose: 200.0 mg/kg/injection, schedule: Q01DX009 (ip), vehicle: Klucel (hydroxypropylcellulose) (HPC)): 0 of 5 | survivor count [4]: 0 of 5

CC([NH-])CC[NH-].O=S(=O)(O)O.[Pt+2] (configuration not stated)
T/C (T/C endpoint: mean survival time, dose: 3.12 mg/kg/injection, schedule: Q04DX003 (ip), vehicle: saline): 139 % of control | T/C (T/C endpoint: mean survival time, dose: 12.5 mg/kg/injection, schedule: Q04DX003 (ip), vehicle: saline): 148 % of control

C=CCc1ccc(OC(=O)Nc2ccc(C)c([N+](=O)[O-])c2)c(OC)c1
survivor count [5]: 3 of 3 | survivor count [6]: 3 of 3

CSc1nc(NN)c2cnn(C3OC(CO)C(O)C3O)c2n1 (configuration not stated)
survivor count (T/C endpoint: median survival time, dose: 180.0 mg/kg/injection, schedule: Q01DX005 (ip), vehicle: saline with Tween-80): 0 of 5

ClCCn1c(CCl)nc2ccccc21
survivor count (T/C endpoint: mean survival time, dose: 40.0 mg/kg/injection, schedule: Q01DX009 (ip), vehicle: saline): 2 of 6

NC(=O)c1ncn2c(=O)n(CCCl)nnc12
T/C (T/C endpoint: median survival time, dose: 1.5 mg/kg/injection, schedule: Q01DX009 (ip), vehicle: saline): 132 % of control | T/C (T/C endpoint: median survival time, dose: 3.12 mg/kg/injection, schedule: Q01DX009 (ip), vehicle: saline): 147 and 147 % of control [5 of 6 alive] | T/C (T/C endpoint: median survival time, dose: 3.12 mg/kg/injection, schedule: Q01DX009 (ip), vehicle: suspension in saline): 131 % of control | T/C (T/C endpoint: median survival time, dose: 25.0 mg/kg/injection, schedule: Q01DX009 (ip), vehicle: saline): 158 (2×), 352, 365 % of control | T/C (T/C endpoint: median survival time, dose: 50.0 mg/kg/injection, schedule: Q01DX009 (ip), vehicle: saline): 101, 126, 132, 137 % of control

COc1cc(Cl)ccc1NC(=O)OCCOc1ccc(Br)cc1
survivor count [6]: 3 of 3 | survivor count [7]: 3 of 3

CCCC(=O)NN=C(C)C
survivor count (T/C endpoint: mean survival time, dose: 100.0 mg/kg/injection, schedule: Q04DX003 (ip), vehicle: saline sonified): 6 of 6 | survivor count (T/C endpoint: mean survival time, dose: 200.0 mg/kg/injection, schedule: Q04DX003 (ip), vehicle: saline sonified): 1 of 6 | survivor count (T/C endpoint: mean survival time, dose: 400.0 mg/kg/injection, schedule: Q04DX003 (ip), vehicle: saline sonified): 0 of 6

COC1=C(C)C(=O)C2=C(C1=O)C(COC(N)=O)C(=O)C1NC1CN2C (configuration not stated)
survivor count (T/C endpoint: mean survival time, dose: 9.4 mg/kg/injection, schedule: Q01DX001 (ip), vehicle: carboxymethylcellulose (CMC)): 2 of 4

C[n+]1ccc(C#N)c2ccccc21
survivor count (T/C endpoint: mean survival time, dose: 100.0 mg/kg/injection, schedule: Q04DX003 (ip), vehicle: acetone): 1 of 6 | survivor count (T/C endpoint: mean survival time, dose: 200.0 mg/kg/injection, schedule: Q04DX003 (ip), vehicle: acetone): 1 of 6 | survivor count (T/C endpoint: mean survival time, dose: 400.0 mg/kg/injection, schedule: Q04DX003 (ip), vehicle: acetone): 0 of 6

C[C@H](N)C(=O)N[C@@H]1[C@H]2C(=C(O)C[C@@H](O)[C@@H]2O)C(=O)O[C@@H]1C
T/C (T/C endpoint: mean survival time, dose: 400.0 mg/kg/injection, schedule: Q01DX007 (ip), vehicle: saline): 135 % of control | T/C (T/C endpoint: mean survival time, dose: 400.0 mg/kg/injection, schedule: Q01DX009 (ip), vehicle: saline): 131 % of control | T/C (T/C endpoint: median survival time, dose: 300.0 mg/kg/injection, schedule: Q01DX009 (ip), vehicle: saline): 128 % of control | T/C (T/C endpoint: median survival time, dose: 600.0 mg/kg/injection, schedule: Q01DX009 (ip), vehicle: saline): 140 and 149 % of control | survivor count (T/C endpoint: median survival time, dose: 2400.0 mg/kg/injection, schedule: Q01DX009 (ip), vehicle: saline): 4 of 10

c1ccc2[s+]cccc2c1
survivor count [8]: 2 of 6 | survivor count [3]: 0 of 6

CN(C)C(=O)N(c1ccccc1)c1ccccc1
survivor count [2]: 1 of 3

C=CCON
survivor count [9]: 0 of 6 | survivor count [10]: 0 of 6

Brc1ccc([I+]c2ccc(Br)cc2)cc1
survivor count [11]: 3 of 6 | survivor count [8]: 3 of 6

O=C(Nc1ccc(C2=NCCCN2)cc1)c1ccc(C(=O)Nc2ccc(C3=NCCCN3)cc2)cc1
T/C (T/C endpoint: mean survival time, dose: 2.0 mg/kg/injection, schedule: Q01DX008 (iv), vehicle: water): 135 % of control | survivor count (T/C endpoint: mean survival time, dose: 4.0 mg/kg/injection, schedule: Q01DX008 (iv), vehicle: water): 2 of 7 | survivor count (T/C endpoint: mean survival time, dose: 8.0 mg/kg/injection, schedule: Q01DX008 (iv), vehicle: water): 0 of 7

CC(=O)OC1CCCCC1C (configuration not stated)
survivor count [12]: 1 of 6

CC1CC1Cc1ccccc1 (configuration not stated)
survivor count (T/C endpoint: mean survival time, dose: 200.0 mg/kg/injection, schedule: Q01DX001 (ip), vehicle: saline with Tween-80): 6 of 6 | survivor count [1]: 6 of 6

COc1cc(C(=O)N(C(C)C)C2CCCCC2)cc(OC)c1OC
survivor count [3]: 2 of 6

CN1c2ccccc2N(C)c2ccccc21
survivor count [7]: 4 of 6 | survivor count [12]: 3 of 6

COC/C=N/N(C)C
survivor count [10]: 2 of 6

Clc1ccc2nc(C(Cl)(Cl)Cl)nc(NCCN3CCCCC3)c2c1
survivor count [11]: 5 of 6 | survivor count [3]: 5 of 6

Oc1ccc(Cl)cc1Cn1ccnc1
survivor count (T/C endpoint: mean survival time, dose: 400.0 mg/kg/injection, schedule: Q04DX002 (ip), vehicle: saline): 0 of 3 and 1 of 6

O=C(NCCCN1CC1)C(=O)NCCCN1CC1
T/C (T/C endpoint: mean survival time, dose: 0.78 mg/kg/injection, schedule: Q01DX009 (ip), vehicle: saline): 136 % of control | T/C (T/C endpoint: mean survival time, dose: 1.56 mg/kg/injection, schedule: Q01DX009 (ip), vehicle: saline): 134 % of control | T/C (T/C endpoint: mean survival time, dose: 3.13 mg/kg/injection, schedule: Q01DX009 (ip), vehicle: saline): 143 % of control

O=[N+]([O-])C=C(S)S
survivor count [4]: 1 of 6

CC(=O)Oc1ccccc1C(=O)O
survivor count (T/C endpoint: mean survival time, dose: 200.0 mg/kg/injection, schedule: Q03HX024 (ip), vehicle: saline): 0 of 6 | survivor count (T/C endpoint: mean survival time, dose: 250.0 mg/kg/injection, schedule: Q01DX009 (ip), vehicle: saline with Tween-80): 3 of 6 | survivor count (T/C endpoint: mean survival time, dose: 400.0 mg/kg/injection, schedule: Q03HX024 (ip), vehicle: saline): 0 of 6 | survivor count (T/C endpoint: mean survival time, dose: 500.0 mg/kg/injection, schedule: Q01DX009 (ip), vehicle: saline with Tween-80): 1 of 6 | survivor count (T/C endpoint: mean survival time, dose: 1000.0 mg/kg/injection, schedule: Q01DX009 (ip), vehicle: saline with Tween-80): 0 of 6 | survivor count (T/C endpoint: mean survival time, dose: 2000.0 mg/kg/injection, schedule: Q01DX001 (ip), vehicle: saline with Tween-80): 2 of 6 | survivor count (T/C endpoint: mean survival time, dose: 4000.0 mg/kg/injection, schedule: Q01DX001 (ip), vehicle: saline with Tween-80): 0 of 6

O=C1/C(=N/O)Cc2ccccc21
survivor count (T/C endpoint: mean survival time, dose: 25.0 mg/kg/injection, schedule: Q01DX009 (ip), vehicle: saline with Tween-80): 3 of 6 | survivor count [5]: 0 of 6

O=C(CCCl)c1ccc2c(c1)OCO2
survivor count (T/C endpoint: mean survival time, dose: 400.0 mg/kg/injection, schedule: Q01DX001 (ip), vehicle: saline): 1 of 6

CCC1(C)C=CCC(C)(C)S1 (configuration not stated)
survivor count [2]: 3 of 3

Cc1ccc([As+](c2ccccc2)(c2ccccc2)c2ccccc2)cc1
survivor count (T/C endpoint: mean survival time, dose: 75.0 mg/kg/injection, schedule: Q01DX001 (ip), vehicle: saline): 0 of 6 | survivor count [9]: 0 of 6 | survivor count [10]: 0 of 6

CC(=O)C(N=Nc1cccc2c1C(=O)c1cccc(Cl)c1C2=O)C(=O)Nc1ccccc1Cl (configuration not stated)
survivor count [10]: 6 of 6

N#Cc1ccc([N+](=O)[O-])o1
survivor count [11]: 5 of 6
